Assay results published in the supplement of paper PMC7661543.
± gives the standard deviation of the averaged measurements. Differences between knockout arms are mostly noise.

Test system: BT-20
Assay: relative cell number vs DMSO control (72 h) (% of DMSO); higher = less growth inhibition (more cells)
Protocol: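 QMAP-Seq: a pool of 5 breast cancer cell lines (ZR-75-1, SKBR3, HCC-38, MDA-MB-231, BT-20), each carrying 12 doxycycline-inducible Cas9 sgRNA perturbations (11 knockouts plus non-targeting sgNT), was treated with compounds for 72 h at four 10-fold doses (10 nM-10 uM or 1 nM-1 uM range). Barcodes were amplified and sequenced, and cell number was interpolated from 293T spike-in standard curves. The result is expressed as % of the median of DMSO wells. Two biological replicates.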

CCOC(=O)c1ccc(N2NC(=O)C(=Cc3ccc([N+](=O)[O-])o3)C2=O)cc1 [PYR41]
Conditions	relative cell number
sgRNA knockout: sgATF3, 10 nM	91.9 ± 6.8
sgRNA knockout: sgATF3, 100 nM	94.5 ± 4.5
sgRNA knockout: sgATF3, 1000 nM	117 ± 3.3
sgRNA knockout: sgATF3, 10000 nM	89.4 ± 16
sgRNA knockout: sgATF4, 10 nM	105 ± 4
sgRNA knockout: sgATF4, 100 nM	86.3 ± 9.8
sgRNA knockout: sgATF4, 1000 nM	110 ± 3.4
sgRNA knockout: sgATF4, 10000 nM	95.9 ± 6.3
sgRNA knockout: sgATF6, 10 nM	96.5 ± 9.6
sgRNA knockout: sgATF6, 100 nM	98.7 ± 6.9
sgRNA knockout: sgATF6, 1000 nM	123 ± 18
sgRNA knockout: sgATF6, 10000 nM	101.5 ± 0.52
sgRNA knockout: sgATG7, 10 nM	99.6 ± 7
sgRNA knockout: sgATG7, 100 nM	95.2 ± 8.4
sgRNA knockout: sgATG7, 1000 nM	122.3 ± 0.14
sgRNA knockout: sgATG7, 10000 nM	99.6 ± 3
sgRNA knockout: sgERN1, 10 nM	94.5 ± 18
sgRNA knockout: sgERN1, 100 nM	101 ± 7.3
sgRNA knockout: sgERN1, 1000 nM	116 ± 9.9
sgRNA knockout: sgERN1, 10000 nM	102 ± 9.6
sgRNA knockout: sgHSF1, 10 nM	101 ± 2.9
sgRNA knockout: sgHSF1, 100 nM	89.1 ± 4.1
sgRNA knockout: sgHSF1, 1000 nM	109 ± 18
sgRNA knockout: sgHSF1, 10000 nM	102 ± 11
sgRNA knockout: sgHSF2, 10 nM	98.4 ± 1.9
sgRNA knockout: sgHSF2, 100 nM	99.8 ± 9.2
sgRNA knockout: sgHSF2, 1000 nM	123 ± 24
sgRNA knockout: sgHSF2, 10000 nM	106 ± 25
sgRNA knockout: sgKEAP1, 10 nM	101 ± 3
sgRNA knockout: sgKEAP1, 100 nM	95.9 ± 1.9
sgRNA knockout: sgKEAP1, 1000 nM	101 ± 1.5
sgRNA knockout: sgKEAP1, 10000 nM	94.9 ± 8
sgRNA knockout: sgNFE2L2, 10 nM	97.4 ± 5.7
sgRNA knockout: sgNFE2L2, 100 nM	84.7 ± 11
sgRNA knockout: sgNFE2L2, 1000 nM	123 ± 17
sgRNA knockout: sgNFE2L2, 10000 nM	113 ± 22
sgRNA knockout: sgSLC35F2, 10 nM	88.5 ± 4.4
sgRNA knockout: sgSLC35F2, 100 nM	87.5 ± 11
sgRNA knockout: sgSLC35F2, 1000 nM	106 ± 19
sgRNA knockout: sgSLC35F2, 10000 nM	106 ± 1.7
sgRNA knockout: sgXBP1, 10 nM	96.1 ± 3.7
sgRNA knockout: sgXBP1, 100 nM	95.12 ± 0.68
sgRNA knockout: sgXBP1, 1000 nM	117 ± 10
sgRNA knockout: sgXBP1, 10000 nM	112 ± 5.2

C[C@]12CC[C@H](O)CC1=CC[C@@H]1[C@@H]2CC[C@]2(C)C(c3cccnc3)=CC[C@@H]12 [Abiraterone]
Conditions	relative cell number
sgRNA knockout: sgATF3, 1 nM	104.1 ± 0.39
sgRNA knockout: sgATF3, 10 nM	114 ± 1.2
sgRNA knockout: sgATF3, 100 nM	106 ± 4.6
sgRNA knockout: sgATF3, 1000 nM	95.6 ± 9.9
sgRNA knockout: sgATF4, 1 nM	120 ± 3
sgRNA knockout: sgATF4, 10 nM	116 ± 6.9
sgRNA knockout: sgATF4, 100 nM	116 ± 3
sgRNA knockout: sgATF4, 1000 nM	105 ± 3.5
sgRNA knockout: sgATF6, 1 nM	109 ± 2
sgRNA knockout: sgATF6, 10 nM	111 ± 1.9
sgRNA knockout: sgATF6, 100 nM	94.6 ± 7.8
sgRNA knockout: sgATF6, 1000 nM	105 ± 13
sgRNA knockout: sgATG7, 1 nM	114 ± 18
sgRNA knockout: sgATG7, 10 nM	127 ± 13
sgRNA knockout: sgATG7, 100 nM	101 ± 8.1
sgRNA knockout: sgATG7, 1000 nM	105 ± 2.6
sgRNA knockout: sgERN1, 1 nM	103 ± 7
sgRNA knockout: sgERN1, 10 nM	112 ± 2.2
sgRNA knockout: sgERN1, 100 nM	107 ± 2
sgRNA knockout: sgERN1, 1000 nM	113 ± 22
sgRNA knockout: sgHSF1, 1 nM	109 ± 11
sgRNA knockout: sgHSF1, 10 nM	105 ± 14
sgRNA knockout: sgHSF1, 100 nM	104 ± 12
sgRNA knockout: sgHSF1, 1000 nM	118 ± 3.9
sgRNA knockout: sgHSF2, 1 nM	104 ± 4.5
sgRNA knockout: sgHSF2, 10 nM	107.1 ± 0.83
sgRNA knockout: sgHSF2, 100 nM	115 ± 6.4
sgRNA knockout: sgHSF2, 1000 nM	104 ± 10
sgRNA knockout: sgKEAP1, 1 nM	109.9 ± 0.55
sgRNA knockout: sgKEAP1, 10 nM	119 ± 9.2
sgRNA knockout: sgKEAP1, 100 nM	96.3 ± 4.3
sgRNA knockout: sgKEAP1, 1000 nM	101 ± 11
sgRNA knockout: sgNFE2L2, 1 nM	110 ± 15
sgRNA knockout: sgNFE2L2, 10 nM	114 ± 1.3
sgRNA knockout: sgNFE2L2, 100 nM	136 ± 4.8
sgRNA knockout: sgNFE2L2, 1000 nM	109 ± 12
sgRNA knockout: sgSLC35F2, 1 nM	101 ± 5.1
sgRNA knockout: sgSLC35F2, 10 nM	118 ± 6.6
sgRNA knockout: sgSLC35F2, 100 nM	107 ± 13
sgRNA knockout: sgSLC35F2, 1000 nM	104 ± 11
sgRNA knockout: sgXBP1, 1 nM	108 ± 10
sgRNA knockout: sgXBP1, 10 nM	108 ± 11
sgRNA knockout: sgXBP1, 100 nM	111 ± 2
sgRNA knockout: sgXBP1, 1000 nM	107 ± 1.5

Cc1cc(N2CCOCC2)cc2[nH]c(-c3c(NC[C@@H](O)c4cccc(Cl)c4)cc[nH]c3=O)nc12
Conditions	relative cell number
sgRNA knockout: sgATF3, 10 nM	102 ± 15
sgRNA knockout: sgATF3, 100 nM	94.5 ± 6.3
sgRNA knockout: sgATF3, 1000 nM	99.6 ± 5.5
sgRNA knockout: sgATF3, 10000 nM	74.3 ± 11
sgRNA knockout: sgATF4, 10 nM	95.43 ± 0.48
sgRNA knockout: sgATF4, 100 nM	84.1 ± 12
sgRNA knockout: sgATF4, 1000 nM	103 ± 8.1
sgRNA knockout: sgATF4, 10000 nM	71.7 ± 6.4
sgRNA knockout: sgATF6, 10 nM	91.6 ± 26
sgRNA knockout: sgATF6, 100 nM	105 ± 4.4
sgRNA knockout: sgATF6, 1000 nM	96.9 ± 2.3
sgRNA knockout: sgATF6, 10000 nM	63.8 ± 20
sgRNA knockout: sgATG7, 10 nM	89.96 ± 0.14
sgRNA knockout: sgATG7, 100 nM	97 ± 14
sgRNA knockout: sgATG7, 1000 nM	94 ± 7.7
sgRNA knockout: sgATG7, 10000 nM	84.5 ± 1.1
sgRNA knockout: sgERN1, 10 nM	88.1 ± 17
sgRNA knockout: sgERN1, 100 nM	86.9 ± 13
sgRNA knockout: sgERN1, 1000 nM	112 ± 2.5
sgRNA knockout: sgERN1, 10000 nM	67.7 ± 5.3
sgRNA knockout: sgHSF1, 10 nM	92.8 ± 12
sgRNA knockout: sgHSF1, 100 nM	78.2 ± 1
sgRNA knockout: sgHSF1, 1000 nM	104 ± 20
sgRNA knockout: sgHSF1, 10000 nM	62.1 ± 16
sgRNA knockout: sgHSF2, 10 nM	95.9 ± 17
sgRNA knockout: sgHSF2, 100 nM	78.95 ± 0.52
sgRNA knockout: sgHSF2, 1000 nM	112 ± 4.9
sgRNA knockout: sgHSF2, 10000 nM	67.1 ± 13
sgRNA knockout: sgKEAP1, 10 nM	104 ± 12
sgRNA knockout: sgKEAP1, 100 nM	74.1 ± 1.8
sgRNA knockout: sgKEAP1, 1000 nM	97.7 ± 8.2
sgRNA knockout: sgKEAP1, 10000 nM	65.4 ± 3.8
sgRNA knockout: sgNFE2L2, 10 nM	92.1 ± 31
sgRNA knockout: sgNFE2L2, 100 nM	87.4 ± 9.1
sgRNA knockout: sgNFE2L2, 1000 nM	111 ± 16
sgRNA knockout: sgNFE2L2, 10000 nM	66.8 ± 4.4
sgRNA knockout: sgSLC35F2, 10 nM	101.6 ± 0.77
sgRNA knockout: sgSLC35F2, 100 nM	87.6 ± 6.3
sgRNA knockout: sgSLC35F2, 1000 nM	103 ± 4.1
sgRNA knockout: sgSLC35F2, 10000 nM	66.8 ± 12
sgRNA knockout: sgXBP1, 10 nM	103 ± 17
sgRNA knockout: sgXBP1, 100 nM	87.3 ± 11
sgRNA knockout: sgXBP1, 1000 nM	110.6 ± 0.35
sgRNA knockout: sgXBP1, 10000 nM	69.1 ± 1.7
